Reference: US20240277890A1, “ANTIMICROBIAL ARTICLES COMPRISING POLYURETHANE” (Amicoat AS, priority 2021, published 2024)
Not every detail of the peptide structures is certain; ends, links or a residue may be inferred.

Key:
[1] = tested on: Candida (Issatchenkia) krusei ATCC6258 - reference strain; set-up: MIC: unit not given beside the values
[2] = tested on: Pseudomonas aeruginosa - multi-drug resistant clinical isolate; set-up: unit not given beside the values; details: P. aeruginosa multi-drug resistant isolate
[3] = tested on: Moraxella catarrhalis - β-lactamase positive clinical isolate; set-up: unit not given beside the values; details: M. catarrhalis β-lactamase positive isolate
[4] = tested on: Moraxella catarrhalis - reduced fluoroquinolone susceptibility clinical isolate; set-up: unit not given beside the values; details: M. catarrhalis reduced fluoroquinolone susceptibility
[5] = tested on: Acinetobacter baumanii - antibiotic-susceptible clinical isolate; details: A. baumanii antibiotic-susceptible isolate
[6] = tested on: Staphylococcus saprophyticus - antibiotic susceptible clinical isolate; set-up: unit not given beside the values; details: S. saprophyticus antibiotic susceptible isolate
[7] = tested on: Streptococcus pneumoniae - multi-drug resistant clinical isolate; details: S. pneumoniae multi-drug resistant
[8] = tested on: Streptococcus bovis - antibiotic-susceptible clinical isolate; set-up: unit not given beside the values; details: S. bovis antibiotic-susceptible

Compound: N=C(N)NCCC[C@H](NC(=O)[C@H](Cc1ccc(-c2ccc3ccccc3c2)cc1)NC(=O)[C@@H](N)CCCNC(=N)N)C(=O)NCCc1ccccc1 [Compound 1]
- MIC ([1]; C. krusei ATCC6258): 4
- MIC (repeat control strain) ([1]; C. krusei ATCC 6258, RPMI 1640): 8
- MIC [2]: 32
- MIC [3]: 4
- MIC [4]: 8
- MIC [5]: 64
- MIC [6]: 1
- MIC [7]: 64
- MIC [8]: 64
